# Experimental data reported in the supplement of paper PMC9135407.
# Where “and” joins values, the source holds several entries; their conditions need not be identical. Equal values may be shown once. Where a name gives a salt, the structure may show the parent alone. ± gives the standard deviation of the averaged measurements. Some of the results follow. Part of the spread comes from offsets between plates or batches.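 Assay uses culture-activated primary human stellate myofibroblasts; lipid droplet recovery indicates inactivation. Measured: proportion of Hoechst-counted cells over a plate-specific Bodipy cutoff, duplicate wells, DMSO and nortriptyline as per-plate negative and positive controls. A hit scores, control-normalized, above the plate's top-tenth-percentile nortriptyline wells or ranks among its three best wells. Final well concentrations not reported.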
# Test system: primary human hepatic stellate cells (donor 1)
# Experiment: percent Bodipy-positive cells; higher = more lipid droplet accumulation
# Conditions: 48 h
# [1] = library stock concentration: 10 mM
# [2] = library stock concentration: 3.33 mM
# [3] = library stock concentration: 1 mM
# [4] = library stock concentration: 2 mM
# [5] = library stock concentration: 80 uM
# [6] = library stock concentration: 400 uM
structure (smiles),measurement,setting,value
Cc1ccc(/C=N/NC(=O)c2ccccc2Oc2ccccc2)o1,percent Bodipy-positive cells,[1],7.28 ± 1.5%
Cc1c(Cl)cccc1Nc1ncccc1C(=O)O [Clonixin Lysinate],percent Bodipy-positive cells,,8.62 ± 1.2%
CCC[C@H](NC(=O)/C(C#N)=C/c1cccc(Br)n1)c1ccccc1 [Degrasyn (WP1130)],percent Bodipy-positive cells,[2],91.3 ± 3.4%
same,percent Bodipy-positive cells,[1],100%
CCOC(=O)NCCCC(=O)NCCc1ccccc1,percent Bodipy-positive cells,[2],21.9 ± 3.9%
same,percent Bodipy-positive cells,[1],25.8 ± 15%
O=c1onc2n1-c1cc(Br)ccc1OC2,percent Bodipy-positive cells,[3],17.4 ± 14%
same,percent Bodipy-positive cells,[1],66.9 ± 17%
Cc1ccc(/C(=C\CN2CCCC2)c2ccccn2)cc1 [Triprolidine hydrochloride],percent Bodipy-positive cells,,45.3 ± 1.5%
same,percent Bodipy-positive cells,library stock concentration: 6.4 mM,28.6 ± 5%
same,percent Bodipy-positive cells,[1],43.9% and 36.8%
Cc1ccc(/C(=C\CN2CCCC2)c2ccccn2)cc1 [trans-Triprolidine hydrochloride],percent Bodipy-positive cells,[1],25 ± 6.6%
Cl.Cl.NC1(c2ccc(-c3nc4ccn5c(=O)[nH]nc5c4cc3-c3ccccc3)cc2)CCC1,percent Bodipy-positive cells,[2],98.5 ± 1.1%
same,percent Bodipy-positive cells,[1],99.458 ± 0.023%
CC(C)(O/N=C(\C(=O)N[C@@H]1C(=O)N2C(C(=O)[O-])=C(C[n+]3ccccc3)CS[C@H]12)c1csc(N)n1)C(=O)O [Ceftazidime pentahydrate],percent Bodipy-positive cells,,22.04 ± 0.21%
"C=C1/C(=C\C=C2/CCC[C@]3(C)[C@@H]([C@H](C)CCCC(C)(C)O)CC[C@@H]23)C[C@@H](O)C[C@@H]1O [1?,25-Dihydroxyvitamin D3]",percent Bodipy-positive cells,[3],7.94 ± 0.72%
C=C1/C(=C\C=C2/CCC[C@]3(C)[C@@H]([C@H](C)CCCC(C)(C)O)CC[C@@H]23)C[C@@H](O)C[C@@H]1O,percent Bodipy-positive cells,[1],7.61 ± 2%
C=C1/C(=C\C=C2/CCC[C@]3(C)[C@@H]([C@H](C)CCCC(C)(C)O)CC[C@@H]23)C[C@@H](O)C[C@@H]1O [Calcitriol],percent Bodipy-positive cells,[2],6.84 ± 0.84%
same,percent Bodipy-positive cells,library stock concentration: 4.8 mM,5.9 ± 1.4%
same,percent Bodipy-positive cells,[1],9.97 ± 0.37%
CCc1c2c(nc3ccc(OC(=O)N4CCC(N5CCCCC5)CC4)cc13)-c1cc3c(c(=O)n1C2)COC(=O)[C@]3(O)CC [Irinotecan HCl Trihydrate],percent Bodipy-positive cells,[2],13.1 ± 3.8%
same,percent Bodipy-positive cells,[1],36.1 ± 2.4%
CCc1c2c(nc3ccc(OC(=O)N4CCC(N5CCCCC5)CC4)cc13)-c1cc3c(c(=O)n1C2)COC(=O)[C@]3(O)CC [IRINOTECAN HCl )trihydrate)],percent Bodipy-positive cells,[1],83.3 ± 3.1%
CCc1c2c(nc3ccc(OC(=O)N4CCC(N5CCCCC5)CC4)cc13)-c1cc3c(c(=O)n1C2)COC(=O)[C@]3(O)CC,percent Bodipy-positive cells,[1],25.4 ± 2.2%
CCc1c2c(nc3ccc(OC(=O)N4CCC(N5CCCCC5)CC4)cc13)-c1cc3c(c(=O)n1C2)COC(=O)[C@]3(O)CC [Irinotecan hydrochloride],percent Bodipy-positive cells,[1],60.4 ± 3.9%
CCc1c2c(nc3ccc(OC(=O)N4CCC(N5CCCCC5)CC4)cc13)-c1cc3c(c(=O)n1C2)COC(=O)[C@]3(O)CC [Irinotecan],percent Bodipy-positive cells,[2],28 ± 2.4%
same,percent Bodipy-positive cells,[1],32.8 ± 1.5%
Cl.C(=C(\CCN(C)C1)/C1)(/c2c(cccc2)C=C3)\c4c3cccc4 [Cyproheptadine hydrochloride],percent Bodipy-positive cells,,82.2 ± 1%
OC[C@H]1O[C@@H](OCCc2ccc(O)cc2)[C@H](O)[C@@H](O)[C@@H]1O [Salidroside],percent Bodipy-positive cells,[2],9.85 ± 3%
same,percent Bodipy-positive cells,[1],12.7 ± 3.8%
CCCCC[C@H](O)/C=C/[C@@H]1c2cc(CCCCC(=O)O)n(-c3ccccc3)c2C[C@H]1O [Piriprost (potassium salt)],percent Bodipy-positive cells,[3],17.7 ± 4.9%
CCN1CCN(Cc2ccc(NC(=O)c3ccc(C)c(/C=C/c4cnc5[nH]ccc5c4OC)c3)cc2C(F)(F)F)CC1,percent Bodipy-positive cells,[4],77.1 ± 1.6%
same,percent Bodipy-positive cells,[1],93.3 ± 3.3%
CNCCC=C1c2ccccc2CCc2ccccc21 [Nortriptyline],percent Bodipy-positive cells,[1],67.4 ± 7.1%
C[C@H]1[C@H](NC(=O)/C(=N\OC(C)(C)C(=O)O)c2csc(N)n2)C(=O)N1S(=O)(=O)O [Aztreonam],percent Bodipy-positive cells,,33.3 ± 7.3%
same,percent Bodipy-positive cells,[2],7.39 ± 0.88%
same,percent Bodipy-positive cells,library stock concentration: 4.7 mM,8.57 ± 4.9%
same,percent Bodipy-positive cells,[1],12 ± 1.5%
CCCCC[C@H](O)/C=C/[C@H]1C(=O)C[C@H](O)[C@@H]1C/C=C/CCCC(=O)O [5-trans Prostaglandin D2],percent Bodipy-positive cells,[3],11.4 ± 2%
OCc1ccc(O[C@@H]2O[C@H](CO)[C@@H](O)[C@H](O)[C@H]2O)cc1 [Gastrodin],percent Bodipy-positive cells,[2],8.08 ± 0.36%
same,percent Bodipy-positive cells,[1],14.8 ± 7.8%
N#CC(c1ccnc(NCCc2cccnc2)n1)c1nc2ccccc2s1 (configuration not stated),percent Bodipy-positive cells,[5],11.5 ± 0.51%
same,percent Bodipy-positive cells,[6],14 ± 0.93%
same,percent Bodipy-positive cells,[4],17.1 ± 1.3%
same,percent Bodipy-positive cells,[1],63.7 ± 0.69%
N#CC(c1ccnc(NCCc2cccnc2)n1)c1nc2ccccc2s1 (configuration not stated) [JNK Inhibitor V],percent Bodipy-positive cells,[2],47.7 ± 14%
O=C(NC(NC(=S)Nc1ccc(F)c([N+](=O)[O-])c1)C(Cl)(Cl)Cl)C(c1ccccc1)c1ccccc1 (configuration not stated),percent Bodipy-positive cells,[5],8.75 ± 1.7%
same,percent Bodipy-positive cells,[6],11.7 ± 0.81%
same,percent Bodipy-positive cells,[4],8.51 ± 1.4%
same,percent Bodipy-positive cells,[2],27.3 ± 4.1%
Cn1cc(C2=C(c3ccc(Cl)cc3Cl)C(=O)NC2=O)c2ccccc21,percent Bodipy-positive cells,[5],26 ± 10%
same,percent Bodipy-positive cells,[4],36.2 ± 4.9%
same,percent Bodipy-positive cells,[2],53.1 ± 12%
same,percent Bodipy-positive cells,[1],55.3 ± 1.5%
CN(N=O)C(=O)N[C@@H](C=O)[C@@H](O)[C@H](O)[C@H](O)CO [Streptozotocin],percent Bodipy-positive cells,,7.03 ± 2.7%
CN(N=O)C(=O)N[C@@H](C=O)[C@@H](O)[C@H](O)[C@H](O)CO [Streptozocin],percent Bodipy-positive cells,[1],9.61 ± 2.1%
CC#CCOC(=O)c1c(C)nc2sc3c(c2c1N)CCC(O)C3 (configuration not stated),percent Bodipy-positive cells,[1],90.7 ± 3.2%
CCCCCCCCCCCCCCCC(=O)N[C@H]1CCOC1=O [N-hexadecanoyl-L-Homoserine lactone],percent Bodipy-positive cells,[3],15.9 ± 12%
Cc1ccc(C(=O)Nc2ccc(S(=O)(=O)O)c3cc(S(=O)(=O)O)cc(S(=O)(=O)O)c23)cc1NC(=O)c1cccc(NC(=O)Nc2cccc(C(=O)Nc3cc(C(=O)Nc4ccc(S(=O)(=O)O)c5cc(S(=O)(=O)O)cc(S(=O)(=O)O)c45)ccc3C)c2)c1 [Suramin],percent Bodipy-positive cells,library stock concentration: 1.4 mM,4.3 ± 1.5%
Cc1ccc(C(=O)Nc2ccc(S(=O)(=O)O)c3cc(S(=O)(=O)O)cc(S(=O)(=O)O)c23)cc1NC(=O)c1cccc(NC(=O)Nc2cccc(C(=O)Nc3cc(C(=O)Nc4ccc(S(=O)(=O)O)c5cc(S(=O)(=O)O)cc(S(=O)(=O)O)c45)ccc3C)c2)c1 [Suramin hexasodium salt],percent Bodipy-positive cells,[1],2.32 ± 1.7%
Cc1ccc(C(=O)Nc2ccc(S(=O)(=O)O)c3cc(S(=O)(=O)O)cc(S(=O)(=O)O)c23)cc1NC(=O)c1cccc(NC(=O)Nc2cccc(C(=O)Nc3cc(C(=O)Nc4ccc(S(=O)(=O)O)c5cc(S(=O)(=O)O)cc(S(=O)(=O)O)c45)ccc3C)c2)c1 [Suramin sodium salt],percent Bodipy-positive cells,[1],6.91 ± 4.8%
CCC(=O)[C@@]1(C)[C@H](C)C[C@H]2[C@@H]3CCC4=CC(=O)C=C[C@]4(C)[C@H]3[C@@H](O)C[C@@]21C [Rimexolone],percent Bodipy-positive cells,,7.87 ± 1.8%

# 4 records picked at random from those above:
structure (smiles),measurement,setting,value
Cc1ccc(C(=O)Nc2ccc(S(=O)(=O)O)c3cc(S(=O)(=O)O)cc(S(=O)(=O)O)c23)cc1NC(=O)c1cccc(NC(=O)Nc2cccc(C(=O)Nc3cc(C(=O)Nc4ccc(S(=O)(=O)O)c5cc(S(=O)(=O)O)cc(S(=O)(=O)O)c45)ccc3C)c2)c1 [Suramin sodium salt],percent Bodipy-positive cells,[1],6.91 ± 4.8%
CC#CCOC(=O)c1c(C)nc2sc3c(c2c1N)CCC(O)C3 (configuration not stated),percent Bodipy-positive cells,[1],90.7 ± 3.2%
CCOC(=O)NCCCC(=O)NCCc1ccccc1,percent Bodipy-positive cells,[1],25.8 ± 15%
CCN1CCN(Cc2ccc(NC(=O)c3ccc(C)c(/C=C/c4cnc5[nH]ccc5c4OC)c3)cc2C(F)(F)F)CC1,percent Bodipy-positive cells,[4],77.1 ± 1.6%
